# Some of these results come from one statement about several compounds together.
# Biological target: T1, Aurora-2 (Aurora A) (Homo sapiens, UniProt O14965)
# T1 sequence (O14965 1-403): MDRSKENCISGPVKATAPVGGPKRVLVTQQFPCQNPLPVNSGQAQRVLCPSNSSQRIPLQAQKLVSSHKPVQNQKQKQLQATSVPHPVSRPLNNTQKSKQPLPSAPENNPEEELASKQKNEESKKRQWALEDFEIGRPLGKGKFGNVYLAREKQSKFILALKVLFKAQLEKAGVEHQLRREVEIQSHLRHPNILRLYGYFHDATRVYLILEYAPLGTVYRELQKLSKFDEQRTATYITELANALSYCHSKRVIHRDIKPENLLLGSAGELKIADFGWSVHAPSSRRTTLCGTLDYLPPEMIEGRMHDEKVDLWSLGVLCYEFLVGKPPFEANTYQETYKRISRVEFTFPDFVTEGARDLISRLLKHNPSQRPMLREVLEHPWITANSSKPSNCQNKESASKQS
# Assay: Aurora-2 (Aurora A) inhibition assay, coupled enzyme
# Type: biochemical
# Details: read-out: Aurora A kinase activity, Ki
# Protocol: Assays were carried out in a mixture of 100 mM Hepes (pH7.5), 10 mM MgCl2, 1 mM DTT, 25 mM NaCl, 2.5 mM phosphoenolpyruvate, 300 μM NADH, 30 μg/ml pyruvate kinase and 10 μg/ml lactate dehydrogenase. […] Assays were carried out at 30° C. and in the presence of 40 nM Aurora-2.
# The plate was preincubated for 10 minutes at 30° C. and the reaction initiated by addition of 10 μl of Aurora-2. Initial reaction rates were determined with a Molecular Devices SpectraMax Plus plate reader over a 10 minute time course. IC50 and Ki data were calculated from non-linear regression analysis using the Prism software package (GraphPad Prism version 3.0cx for Macintosh, GraphPad Software, San Diego Calif., USA).
row,Structure (SMILES),Ki [nM]
1,Cc1cc(Nc2cc(N3CC(O)(C4CC4)C3)nc(Sc3cc(F)c4nc(C)ccc4c3)n2)[nH]n1 [Compound 172],< 25
2,Cc1cc(Nc2cc(N3CCC3)nc(Sc3ccc(NC(=O)CCC(F)(F)F)cc3)n2)[nH]n1 [Compound 121],< 25
3,Cc1cc(Nc2cc(N3CCC3)nc(Sc3ccc(NC(=O)C(C)(C)C)cc3)n2)[nH]n1 [Compound 114],< 25
4,Cc1cccc(C(=O)Nc2ccc(Sc3nc(Nc4cc(C)[nH]n4)cc(N4CCC4)n3)cc2)c1 [Compound 29],< 25
5,Cc1cc(Nc2cc(N3CCC3)nc(Sc3ccc(NC(=O)c4cccnc4C)cc3)n2)[nH]n1 [Compound 63],< 25
6,Cc1cc(Nc2cc(N3CC(OC(C)C)C3)nc(Sc3ccc(NC(=O)c4ccccc4Cl)cc3)n2)n[nH]1 [Compound 38],< 25
7,Cc1cc(Nc2cc(N3CCC3)nc(Sc3ccc(NC(=O)OC(C)(C)C)cc3)n2)n[nH]1 [Compound 26],< 25
8,Cc1cc(Nc2cc(N3CCC3)nc(Sc3ccc(NC(=O)c4ccc(Oc5ccccc5)cc4Cl)cc3)n2)[nH]n1 [Compound 87],< 25
9,CCC(=O)Nc1ccc(Sc2nc(Nc3cc(C)n[nH]3)cc(N3CC(C)(N4CCOCC4)C3)n2)cc1 [Compound 88],< 25
10,Cc1cc(Nc2cc(N3CC(F)(C4CC4)C3)nc(Sc3cnc4ccccc4c3)n2)[nH]n1 [Compound 206],< 25
11,COC1CN(c2cc(Nc3cc(C)n[nH]3)nc(Sc3ccc(NC(=O)c4ccccc4C(F)(F)F)cc3)n2)C1 [Compound 126],< 25
12,Cc1cc(Nc2cc(N3CC(C)C3)nc(Sc3ccc(NC(=O)c4ccccc4Cl)cc3)n2)n[nH]1 [Compound 39],< 25
13,CCC(=O)Nc1ccc(Sc2nc(Nc3cc(C)n[nH]3)cc(N3CC(C)(NC(C)(C)C)C3)n2)cc1 [Compound 80],< 25
14,CCC(=O)Nc1ccc(Sc2nc(Nc3cc(C)n[nH]3)cc(N3CC(O)(c4ccccc4C)C3)n2)cc1 [Compound 93],< 25
15,CC1=NN=C(Nc2cc(N3CCC3)nc(Sc3ccc(NC(=O)c4cccc(C(F)(F)F)c4F)cc3)n2)C1 [Compound 55],< 25
16,Cc1cc(Nc2cc(N3CCC3)nc(Sc3ccc(C(=O)Nc4ccc(Cl)cc4)cc3)n2)n[nH]1 [Compound 21],< 25
17,CCC(=O)Nc1ccc(Sc2nc(Nc3cc(C)n[nH]3)cc(N3CC(C)(O)C3)n2)cc1 [Compound 71],< 25
18,Cc1cc(Nc2cc(N3CC(O)(C4CC4)C3)nc(Sc3ccc4nc(C(F)(F)F)ccc4c3)n2)[nH]n1 [Compound 186],< 25

# System: not listed separately
# Assay: Microsomal stability assay
# Type: in vitro ADME
# Details: after 30 minutes
row,Structure (SMILES),"stability to human liver microsomes, % remaining [%]"
1,Cc1cc(Nc2cc(N3CC(O)(C4CC4)C3)nc(Sc3cc(F)c4nc(C)ccc4c3)n2)[nH]n1 [Compound 172],> 50
2,Cc1cc(Nc2cc(N3CCC3)nc(Sc3ccc(NC(=O)CCC(F)(F)F)cc3)n2)[nH]n1 [Compound 121],> 50
3,Cc1cc(Nc2cc(N3CCC3)nc(Sc3ccc(NC(=O)C(C)(C)C)cc3)n2)[nH]n1 [Compound 114],> 50
4,Cc1cccc(C(=O)Nc2ccc(Sc3nc(Nc4cc(C)[nH]n4)cc(N4CCC4)n3)cc2)c1 [Compound 29],> 50
5,Cc1cc(Nc2cc(N3CC(OC(C)C)C3)nc(Sc3ccc(NC(=O)c4ccccc4Cl)cc3)n2)n[nH]1 [Compound 38],> 50
6,Cc1cc(Nc2cc(N3CCC3)nc(Sc3ccc(NC(=O)OC(C)(C)C)cc3)n2)n[nH]1 [Compound 26],> 50
7,Cc1cc(Nc2cc(N3CCC3)nc(Sc3ccc(NC(=O)c4ccc(Oc5ccccc5)cc4Cl)cc3)n2)[nH]n1 [Compound 87],> 50
8,CCC(=O)Nc1ccc(Sc2nc(Nc3cc(C)n[nH]3)cc(N3CC(C)(N4CCOCC4)C3)n2)cc1 [Compound 88],> 50
9,Cc1cc(Nc2cc(N3CC(F)(C4CC4)C3)nc(Sc3cnc4ccccc4c3)n2)[nH]n1 [Compound 206],> 50
10,COC1CN(c2cc(Nc3cc(C)n[nH]3)nc(Sc3ccc(NC(=O)c4ccccc4C(F)(F)F)cc3)n2)C1 [Compound 126],> 50
11,Cc1cc(Nc2cc(N3CC(C)C3)nc(Sc3ccc(NC(=O)c4ccccc4Cl)cc3)n2)n[nH]1 [Compound 39],> 50
12,CCC(=O)Nc1ccc(Sc2nc(Nc3cc(C)n[nH]3)cc(N3CC(C)(NC(C)(C)C)C3)n2)cc1 [Compound 80],> 50
13,CCC(=O)Nc1ccc(Sc2nc(Nc3cc(C)n[nH]3)cc(N3CC(O)(c4ccccc4C)C3)n2)cc1 [Compound 93],> 50
14,CC1=NN=C(Nc2cc(N3CCC3)nc(Sc3ccc(NC(=O)c4cccc(C(F)(F)F)c4F)cc3)n2)C1 [Compound 55],> 50
15,Cc1cc(Nc2cc(N3CCC3)nc(Sc3ccc(C(=O)Nc4ccc(Cl)cc4)cc3)n2)n[nH]1 [Compound 21],> 50
16,CCC(=O)Nc1ccc(Sc2nc(Nc3cc(C)n[nH]3)cc(N3CC(C)(O)C3)n2)cc1 [Compound 71],> 50
17,Cc1cc(Nc2cc(N3CC(O)(C4CC4)C3)nc(Sc3ccc4nc(C(F)(F)F)ccc4c3)n2)[nH]n1 [Compound 186],> 50

# Same assay, conditions: after 60 minutes
row,Structure (SMILES),"stability to human liver microsomes, % remaining [%]"
1,Cc1cc(Nc2cc(N3CCC3)nc(Sc3ccc(NC(=O)CCC(F)(F)F)cc3)n2)[nH]n1 [Compound 121],> 50
2,Cc1cc(Nc2cc(N3CCC3)nc(Sc3ccc(NC(=O)C(C)(C)C)cc3)n2)[nH]n1 [Compound 114],> 50
3,Cc1cc(Nc2cc(N3CCC3)nc(Sc3ccc(NC(=O)c4cccnc4C)cc3)n2)[nH]n1 [Compound 63],> 50
4,COC1CN(c2cc(Nc3cc(C)n[nH]3)nc(Sc3ccc(NC(=O)c4ccccc4C(F)(F)F)cc3)n2)C1 [Compound 126],> 50
5,Cc1cc(Nc2cc(N3CC(C)C3)nc(Sc3ccc(NC(=O)c4ccccc4Cl)cc3)n2)n[nH]1 [Compound 39],> 50
6,CCC(=O)Nc1ccc(Sc2nc(Nc3cc(C)n[nH]3)cc(N3CC(C)(NC(C)(C)C)C3)n2)cc1 [Compound 80],> 50
7,CC1=NN=C(Nc2cc(N3CCC3)nc(Sc3ccc(NC(=O)c4cccc(C(F)(F)F)c4F)cc3)n2)C1 [Compound 55],> 50
8,CCC(=O)Nc1ccc(Sc2nc(Nc3cc(C)n[nH]3)cc(N3CC(C)(O)C3)n2)cc1 [Compound 71],> 50
